Some of the results follow.
molecular target: OsWRKY34 (Oryza sativa, UniProt Q0JBA9 1-250); assay: protein-binding microarray (RPBM); PBS, 2% BSA, 51.3 ng/ul salmon testes DNA, 50 uM zinc acetate, 200 nM TF, 25 C, 1 h; high values mean tight binding; conditions: protein: recombinant; tags: N-terminal polyhistidine and DsRed monomer fusion (pET32a); label: CyDye5-dUTP incorporated in the synthesized complementary strand; 3' TTTTT single-stranded linker to array surface; dsDNA, one strand shown
Method in brief: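 For the binding signal, per-feature fluorescence intensity was read in arbitrary units on an Axon 4000B scanner. Before scanning, a 2% BSA-blocked custom Agilent array made double-stranded with Cy5-dUTP was washed after 1 h at 25 °C with 200 nM protein and 50 µM zinc acetate. The proteins were Ni–NTA-purified transcription factors with N-terminal polyhistidine and DsRed fusions, expressed in E. coli BL21-CodonPlus.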

The chains behind the UniProt entries cited, without tags or fusion partners.
UniProt Q0JBA9, entry or part of it: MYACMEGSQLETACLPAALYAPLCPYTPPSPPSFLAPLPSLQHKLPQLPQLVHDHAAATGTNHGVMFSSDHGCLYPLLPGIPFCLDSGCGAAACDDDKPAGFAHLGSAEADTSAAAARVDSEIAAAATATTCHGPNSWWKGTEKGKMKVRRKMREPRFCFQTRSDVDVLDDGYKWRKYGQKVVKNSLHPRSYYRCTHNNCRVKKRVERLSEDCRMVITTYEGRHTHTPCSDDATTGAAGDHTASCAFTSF

Sequence | binding signal
GTCCTGTATAGCTGTAAGTATATATGATCATTCATTGCTCCGGAGTCACCTAGTGCAG | 8560 fluorescence intensity (a.u.)
AGTTCAGGGTTTCAGACTCTTAAGAAGTTCAGATTTTTCTCGGAGTCACCTAGTGCAG | 8140 fluorescence intensity (a.u.)
GCCTGCCTGCCTGTGAATTTTTTTTTTGTTTTCAATTTGTCGGAGTCACCTAGTGCAG | 9470 fluorescence intensity (a.u.)
AAACATATTTACAATGGCATGAATCCAATTTACCCTTTTTCGGAGTCACCTAGTGCAG | 10100 fluorescence intensity (a.u.)
CCTCACCATCCAACCTCGCCACCTGACGATTCCCCTAAGCCGGAGTCACCTAGTGCAG | 9630 fluorescence intensity (a.u.)
TTCTCATGCTTTGACGCCACCATTAAGCTTTGGCTTTTCTCGGAGTCACCTAGTGCAG | 8600 fluorescence intensity (a.u.)
GTGGTTTTGCAATGTGGTTTTTAATCTAATATGTATATACCGGAGTCACCTAGTGCAG | 8080 fluorescence intensity (a.u.)
TGGTTGTTCTCTCATGCTCTCACACACTTGGATGCTAGCTCGGAGTCACCTAGTGCAG | 8150 fluorescence intensity (a.u.)
ATCCGGAATTGTGATCCCTGCTGATTACTCGCTTGATAAACGGAGTCACCTAGTGCAG | 10900 fluorescence intensity (a.u.)
TGTTTGGCGCTGATGCGCTACGTTTGTTAACTGTTGTCCGCGGAGTCACCTAGTGCAG | 9210 fluorescence intensity (a.u.)
AGGGTCGTCTCTTGACTAGCAGTGTCAATTGACCAGTTTGCGGAGTCACCTAGTGCAG | 8600 fluorescence intensity (a.u.)
TGCGCCAGCCGCCGTCGACCTCGCCGCCAACCGCGCGCCGCGGAGTCACCTAGTGCAG | 9250 fluorescence intensity (a.u.)
ATTACTCCCCTCGGACCGACATTTCCACTTTCTAACAAACCGGAGTCACCTAGTGCAG | 8760 fluorescence intensity (a.u.)
TTCTTTTTTTTCGCCATTTCTTTCTATTTTTTTAATCTTTCGGAGTCACCTAGTGCAG | 11000 fluorescence intensity (a.u.)
GAACCAAAATGATTATATTGCCCTTTGCTTTCCTACTTTACGGAGTCACCTAGTGCAG | 11000 fluorescence intensity (a.u.)
CCACGTGATTGTTCTTTCTGTTCCTTTTTTTATGGGATTGCGGAGTCACCTAGTGCAG | 9000 fluorescence intensity (a.u.)
ATATAAAATCTTCACACTGTTTTGTGCCGGTACTTTCCAACGGAGTCACCTAGTGCAG | 8900 fluorescence intensity (a.u.)
ACCCCTACCCATTCTCTCTCTCTCTCTCTCTCTAGCTAGCCGGAGTCACCTAGTGCAG | 9690 fluorescence intensity (a.u.)
TTTTTACAACCCTGCGATTCAGATAGACCTTACCATTTTTCGGAGTCACCTAGTGCAG | 8940 fluorescence intensity (a.u.)
CCTTTTCAAGTATTATTGCTGTTTGATTCATCTCTCTTTGCGGAGTCACCTAGTGCAG | 9510 fluorescence intensity (a.u.)
AATCCATTTCCCATTCGCCATTCCCCATCCTTATCTCTTACGGAGTCACCTAGTGCAG | 8660 fluorescence intensity (a.u.)

Reprinted at random: two entries already listed
Sequence | binding signal
CCTTTTCAAGTATTATTGCTGTTTGATTCATCTCTCTTTGCGGAGTCACCTAGTGCAG | 9510 fluorescence intensity (a.u.)
AAACATATTTACAATGGCATGAATCCAATTTACCCTTTTTCGGAGTCACCTAGTGCAG | 10100 fluorescence intensity (a.u.)

(list continues)

Sequence | binding signal
CTGTTCATCATCAGCTCGAGTGTTCAACGACCTTTGCCCTCGGAGTCACCTAGTGCAG | 8900 fluorescence intensity (a.u.)
ATCCGACGCGTTCGTTGTACTGTAATCTGTAGGCGTTGACCGGAGTCACCTAGTGCAG | 15600 fluorescence intensity (a.u.)
CTTGCACCATTGTTTATTTTTTGTATTTTTCATTCCTCAACGGAGTCACCTAGTGCAG | 8870 fluorescence intensity (a.u.)
CACCGCTGTCATGCCTTGTCTTCGAGTCGGTCCAGGGGATCGGAGTCACCTAGTGCAG | 8030 fluorescence intensity (a.u.)
GCACACCCTCGCTCTGACGACCCTGTCACGTTGAGCTACGCGGAGTCACCTAGTGCAG | 8240 fluorescence intensity (a.u.)
ACCACCACCGTCTCAACTCTCTCTCAGACTGTCCGCCATGCGGAGTCACCTAGTGCAG | 8030 fluorescence intensity (a.u.)
CTAATTTCTGCTTTTTTCATGCAGTATAATCAATCAGCCACGGAGTCACCTAGTGCAG | 8040 fluorescence intensity (a.u.)
ACATTTCTGGTTTGTGGTTAAGGGACCTCAATAAATCTCGCGGAGTCACCTAGTGCAG | 8160 fluorescence intensity (a.u.)
GCGCTCCCGTCGTTGTCTCCGCTGCTTTGTTTCTCGTCGCCGGAGTCACCTAGTGCAG | 11600 fluorescence intensity (a.u.)
CTGCTACTCCTCTGCCTGCATATGTGTTCAATCTCTGTTGCGGAGTCACCTAGTGCAG | 8940 fluorescence intensity (a.u.)
AACTCGATCCGCCGCCGCCACACCTTGATCCGCCACCTCCCGGAGTCACCTAGTGCAG | 10200 fluorescence intensity (a.u.)
GATTTTTAAAACAACTTTCGTGTAGATTGTCTTTTTTTTTCGGAGTCACCTAGTGCAG | 9880 fluorescence intensity (a.u.)
ACGCGACCTGTCCGCCGTCGACACACCCGCGCCGTTCCTGCGGAGTCACCTAGTGCAG | 11000 fluorescence intensity (a.u.)
TTTTCCGTTCACTTCTGGACTTTTTGGCTGTGTGCCTACGCGGAGTCACCTAGTGCAG | 12600 fluorescence intensity (a.u.)
AGTAGTGCCCGACATCGTCTCCTCGATAGTTGTCTCCGTCCGGAGTCACCTAGTGCAG | 8480 fluorescence intensity (a.u.)
CAGGGTTTGTCTTTTTTTTTGACGGAGGGAGTACGTCAATCGGAGTCACCTAGTGCAG | 8050 fluorescence intensity (a.u.)
GACTATCTTGTCGTTCGGTCCAAAAACCGGCGCCTTATGACGGAGTCACCTAGTGCAG | 8300 fluorescence intensity (a.u.)
ATCCATCGGTACGTTCTTTCTTTCTTTCTTTCTGCATGATCGGAGTCACCTAGTGCAG | 9700 fluorescence intensity (a.u.)
TTATACGAACTCTATATTGCTTATTTGTAATTCCGAATTTCGGAGTCACCTAGTGCAG | 8240 fluorescence intensity (a.u.)
ACTCGCTCCATTCCATCCCTAAATATTTCACACCGTTAACCGGAGTCACCTAGTGCAG | 10300 fluorescence intensity (a.u.)
CGCGCTCCGTCTTCCACGCGTGGTGGTGGGGAGGGTATTTCGGAGTCACCTAGTGCAG | 12500 fluorescence intensity (a.u.)
